PubChem BioAssay AID743454, Peter MacCallum Cancer Centre, 2014

Aim: 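Search for knock-downs that restore vorinostat killing in resistant colon cancer cells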 (primary screen)
Cell system: human HCT116-VR colon cancer cells, selected for vorinostat resistance
Knock-down reagent: siRNA pool against human genes, 40 nM siRNA pool
Timing: vorinostat for 24 h, read-out about 72 h after transfection
Treatment: vorinostat at 2.5 µM final
Measured: 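Two measures, CellTiter-Fluor viability and luminescent caspase 3/7 activity, each as fold change against same-plate mock wells, mean of duplicates, then screen-wide robust z-score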
Reading the numbers: viability robust z-score: higher = more viable cells than screen typical; caspase robust z-score: higher = more caspase 3/7 activity than screen typical
Call rule: 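Hits are knock-downs in viability class RV1/RV2 or caspase class CA1/CA2, excluding ones that killed cells in the no-drug cell-count arm; hits then retested with single siRNAs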
The whole screen tested about 18,000 reagents; below is a random part of them. 450 of all reagents (2.5%) count as active. 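Single biological run; no consistent viability z cut-off exists, so the class columns, not z-scores, define the calls.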 Unmarked entries are inactive.

Against PAXBP1 (GeneID 94104) [SID152148975], the entry reads viability hit class no change; caspase hit class no change; viability robust z-score -2.02; caspase robust z-score -1.47.
ALDH1A2 (GeneID 8854) [SID134313044] gave viability hit class no change; caspase hit class no change; viability robust z-score 0.45; caspase robust z-score -0.64.
Silencing of PRKAG1 (GeneID 5571) [SID135621699] resulted in: viability hit class no change; caspase hit class no change; viability robust z-score 0.46; caspase robust z-score 0.22.
With knock-down of NDUFA7 (GeneID 4701) [SID152154729] the results were viability hit class no change (active); caspase hit class CA2 (caspase activation); viability robust z-score -1.78; caspase robust z-score 5.74.
For MTFR2 (GeneID 113115) [SID152152261] the deposit lists viability hit class RV1 (reduced viability) (active); caspase hit class no change; viability robust z-score -3.38; caspase robust z-score -0.78.
With knock-down of KBTBD4 (GeneID 55709) [SID152148549], the screen gave viability hit class no change; caspase hit class no change; viability robust z-score -0.42; caspase robust z-score -0.24.
For SERINC1 (GeneID 57515) [SID134315217], the values are viability hit class no change; caspase hit class no change; viability robust z-score -0.05; caspase robust z-score -0.45.
With knock-down of ENTREP3 (GeneID 10712) [SID134323895], the record shows viability hit class no change; caspase hit class no change; viability robust z-score 0.8; caspase robust z-score 0.9.
For CBX5 (GeneID 23468) [SID135620805], the entry reads viability hit class no change; caspase hit class no change; viability robust z-score -1.47; caspase robust z-score -0.56.
PLA2G12A (GeneID 81579) [SID134314705] showed viability hit class no change; caspase hit class no change; viability robust z-score 0.3; caspase robust z-score 0.37.
CGNL1 (GeneID 84952) [SID152154209] gave viability hit class no change; caspase hit class no change; viability robust z-score 0.76; caspase robust z-score -0.44.
Against TLCD3A (GeneID 79850) [SID152152943], the entry reads viability hit class no change; caspase hit class no change; viability robust z-score 0.14; caspase robust z-score 1.59.
SUPT4H1 (GeneID 6827) [SID134316864] showed viability hit class no change; caspase hit class no change; viability robust z-score -1.02; caspase robust z-score -0.08.
Against PPCS (GeneID 79717) [SID135622734], the values are viability hit class no change; caspase hit class no change; viability robust z-score 1.37; caspase robust z-score -0.71.

Part of the list above, reformatted.
ALDH1A2 (GeneID 8854) [SID134313044]
- viability hit class: no change
- caspase hit class: no change
- viability robust z-score: 0.45
- caspase robust z-score: -0.64

PRKAG1 (GeneID 5571) [SID135621699]
- viability hit class: no change
- caspase hit class: no change
- viability robust z-score: 0.46
- caspase robust z-score: 0.22
